PubChem BioAssay AID1259308 – NCATS – 2017

- Test: 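Genes whose loss raises luciferase production in HEK293 cells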 (primary screen)
- System: human HEK293 embryonic kidney cells stably expressing firefly luciferase (HEK-CMV-Luc2-Hygro)
- Reagents: single siRNA against human genes, 0.8 pmol siRNA per well
- Time to read-out: 72 h
- Measurement: 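Reporter luminescence and viable-cell signal on separate replicate plates, given as percent of non-targeting control and median/MAD z-scores, plus per-cell luciferase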
- Reading the numbers: total luciferase, z-score: higher = more reporter protein produced
- Hit rule: 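Active when the median/MAD z-score for overall luciferase is greater than 3; a gene was taken forward for validation with new siRNAs if at least two of its three siRNAs passed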
- Meaning of the calls: active = raised luciferase; inactive = no rise
Shown is an unselected part of about 59,000 reagents. About 1,510 of all reagents (2.6%) count as active. 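Calls use total luciferase alone and ignore viability, so some active siRNAs may act by altering cell number.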 The numbers tell different reagents against one gene apart. Not all columns of the deposit are shown. Reagent sequences are not shown.

total luciferase, z-score, by gene symbol and reagent
FBXO44 (GeneID 93611): #1 0.407 inactive; #2 2.66 inactive; #3 -1.45 inactive
RP1 (GeneID 6101): #1 -1.41 inactive; #2 0.32 inactive; #3 -0.993 inactive
RSPH1 (GeneID 89765): #1 -0.166 inactive; #2 0.182 inactive; #3 -0.422 inactive
CRYL1 (GeneID 51084): #1 -0.753 inactive; #2 0.132 inactive; #3 -0.764 inactive
INTS3 (GeneID 65123): #1 1.25 inactive; #2 2.08 inactive; #3 1.84 inactive
NUCB2 (GeneID 4925): #1 -0.713 inactive; #2 -0.167 inactive; #3 -1.78 inactive
ACSL5 (GeneID 51703): #1 -0.803 inactive; #2 0.523 inactive; #3 -0.154 inactive
MAP3K9 (GeneID 4293): #1 0.714 inactive; #2 1.36 inactive; #3 2.85 inactive
FAM3D (GeneID 131177): #1 0.0687 inactive; #2 -0.079 inactive; #3 -1.47 inactive
FAM110A (GeneID 83541): #1 -1.93 inactive; #2 1.88 inactive; #3 0.36 inactive
TSSK6 (GeneID 83983): #1 -0.474 inactive; #2 -0.767 inactive; #3 -0.265 inactive
GMPPB (GeneID 29925): #1 0.523 inactive; #2 -1.71 inactive; #3 -0.432 inactive
THAP8 (GeneID 199745): #1 1.63 inactive; #2 -0.698 inactive; #3 0.132 inactive
MYMK (GeneID 389827): #1 0.636 inactive; #2 0.143 inactive; #3 -1.31 inactive
CIMAP1A (GeneID 113746): #1 -1.63 inactive; #2 -0.0717 inactive; #3 1.75 inactive
CD99P1 (GeneID 401577): #1 -1.06 inactive; #2 2.79 inactive; #3 3.09 active
ARMCX1 (GeneID 51309): #1 -0.152 inactive; #2 -0.0846 inactive; #3 1.45 inactive
TSPO (GeneID 706): #1 -0.479 inactive; #2 -1 inactive; #3 -1.77 inactive
MAN2C1 (GeneID 4123): #1 -0.264 inactive; #2 0.849 inactive; #3 2.44 inactive
POU2F3-AS1 (GeneID 649133): #1 -0.274 inactive; #2 0.0804 inactive; #3 -0.895 inactive
BTF3P16 (GeneID 643412): #1 0.513 inactive; #2 -1.24 inactive; #3 1.76 inactive
ETNK2 (GeneID 55224): #1 -0.624 inactive; #2 -0.436 inactive; #3 1.49 inactive
TMEM260 (GeneID 54916): #1 -0.886 inactive; #2 1.63 inactive; #3 -0.13 inactive
SPAG17 (GeneID 200162): #1 -0.178 inactive; #2 -1.22 inactive; #3 0.503 inactive
FUT8 (GeneID 2530): #1 1.45 inactive; #2 0.938 inactive; #3 -1.03 inactive

Already shown: an excerpt of the list.
total luciferase, z-score, by gene symbol and reagent
CRYL1 (GeneID 51084): #1 -0.753 inactive; #2 0.132 inactive; #3 -0.764 inactive
INTS3 (GeneID 65123): #1 1.25 inactive; #2 2.08 inactive; #3 1.84 inactive
NUCB2 (GeneID 4925): #1 -0.713 inactive; #2 -0.167 inactive; #3 -1.78 inactive
ACSL5 (GeneID 51703): #1 -0.803 inactive; #2 0.523 inactive; #3 -0.154 inactive
